# Some of the results follow.
# Experiments:
# Assay in all cases: glycan array binding signal (z-score within array); higher = stronger binding
# Conditions in all cases: glycan notation: IUPAC condensed, linker removed
# [1] = target: GalNAc(b1-4)GlcNAc(b1-2)Man(a1-3)[GalNAc(b1-4)GlcNAc(b1-2)Man(a1-6)]Man(b1-4)GlcNAc(b1-4)GlcNAc
# In short: (§1)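 The binding signal is a Z-score computed within each array and averaged over linkers. Arrays of the same protein sequence at different concentrations or buffers were also averaged together. Data originate from 3228 arrays in the Consortium for Functional Glycomics database, kept only where the protein sequence was available.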
# [2] = target: GalNAc(b1-4)GlcNAc(b1-3)GalNAc(b1-4)GlcNAc
# In short: as §1
# [3] = target: GalNAc(b1-4)GlcNAc6S
# In short: as §1
# [4] = target: GalNAc(b1-6)GalNAc
# In short: as §1
# [5] = target: GalNAc3S(b1-4)GlcNAc
# In short: as §1
# [6] = target: GalNAc3S(b1-4)GlcNAc3S
# In short: as §1
# [7] = target: GalNAc3S(b1-4)[Fuc(a1-3)]GlcNAc
# In short: as §1
# [8] = target: GalNAc4S6S(b1-4)GlcNAc
# In short: as §1
# [9] = target: GalNAc6S(b1-4)GlcNAc
# In short: as §1
# [10] = target: Glc(a1-4)Glc
# In short: as §1
# [11] = target: Glc(a1-4)Glc(a1-4)Glc(a1-4)Glc
# In short: as §1
# [12] = target: Glc(a1-6)Glc(a1-6)Glc
# In short: as §1
# [13] = target: Glc(a1-6)Glc(a1-6)Glc(a1-6)Glc
# In short: as §1
# [14] = target: Glc(b1-4)Glc
# In short: as §1
# [15] = target: Glc(b1-6)Glc
# In short: as §1
# [16] = target: GlcA(b1-3)Gal
# In short: as §1
# [17] = target: GlcA(b1-3)GlcNAc
# In short: as §1
# [18] = target: GlcA(b1-6)Gal
# In short: as §1
# [19] = target: GlcA3S(b1-3)Gal(b1-4)GlcNAc(b1-2)Man
# In short: as §1
# [20] = target: GlcA3S(b1-3)Gal(b1-4)GlcNAc(b1-3)Gal(b1-4)Glc
# In short: as §1
# [21] = target: GlcNAc(a1-3)Gal(b1-4)GlcNAc
# In short: as §1
# [22] = target: GlcNAc(a1-4)Gal(b1-3)GlcNAc
# In short: as §1
# [23] = target: GlcNAc(a1-4)Gal(b1-4)GalNAc
# In short: as §1
# [24] = target: GlcNAc(a1-4)Gal(b1-4)GlcNAc
# In short: as §1
# [25] = target: GlcNAc(a1-4)Gal(b1-4)GlcNAc(b1-3)Gal(b1-4)Glc
# In short: as §1
# [26] = target: GlcNAc(a1-4)Gal(b1-4)GlcNAc(b1-3)Gal(b1-4)GlcNAc
# In short: as §1
# [27] = target: GlcNAc(a1-4)Gal(b1-4)GlcNAc(b1-3)Gal(b1-4)GlcNAc(b1-3)Gal(b1-4)GlcNAc
# In short: as §1
# [28] = target: GlcNAc(a1-4)Gal(b1-4)GlcNAc(b1-3)Gal(b1-4)[Fuc(a1-3)]GlcNAc(b1-3)Gal(b1-4)[Fuc(a1-3)]GlcNAc
# In short: as §1
# [29] = target: GlcNAc(a1-6)Gal(b1-4)GlcNAc
# In short: as §1
# [30] = target: GlcNAc(b1-2)Gal(b1-3)GalNAc
# In short: as §1
# [31] = target: GlcNAc(b1-2)Man(a1-3)[GlcNAc(b1-2)Man(a1-6)]Man(b1-4)GlcNAc(b1-4)GlcNAc
# In short: as §1
# [32] = target: GlcNAc(b1-2)Man(a1-3)[GlcNAc(b1-2)Man(a1-6)]Man(b1-4)GlcNAc(b1-4)[Fuc(a1-6)]GlcNAc
# In short: as §1
# [33] = target: GlcNAc(b1-2)Man(a1-3)[GlcNAc(b1-4)][GlcNAc(b1-2)Man(a1-6)]Man(b1-4)GlcNAc(b1-4)GlcNAc
# In short: as §1
# [34] = target: GlcNAc(b1-2)Man(a1-3)[GlcNAc(b1-4)][GlcNAc(b1-2)Man(a1-6)]Man(b1-4)GlcNAc(b1-4)[Fuc(a1-6)]GlcNAc
# In short: as §1
# [35] = target: GlcNAc(b1-2)[GlcNAc(b1-4)]Man(a1-3)[GlcNAc(b1-2)Man(a1-6)]Man(b1-4)GlcNAc(b1-4)GlcNAc
# In short: as §1
# [36] = target: GlcNAc(b1-2)[GlcNAc(b1-4)]Man(a1-3)[GlcNAc(b1-4)][GlcNAc(b1-2)Man(a1-6)]Man(b1-4)GlcNAc(b1-4)GlcNAc
# In short: as §1
# [37] = target: GlcNAc(b1-2)[GlcNAc(b1-4)]Man(a1-3)[GlcNAc(b1-4)][GlcNAc(b1-2)[GlcNAc(b1-6)]Man(a1-6)]Man(b1-4)GlcNAc(b1-4)GlcNAc
# In short: as §1
# [38] = target: GlcNAc(b1-2)[GlcNAc(b1-4)]Man(a1-3)[GlcNAc(b1-4)][GlcNAc(b1-2)[GlcNAc(b1-6)]Man(a1-6)]Man(b1-4)GlcNAc(b1-4)[Fuc(a1-6)]GlcNAc
# In short: as §1
# [39] = target: GlcNAc(b1-2)[GlcNAc(b1-6)]Man(a1-6)[GlcNAc(b1-2)Man(a1-3)]Man(b1-4)GlcNAc(b1-4)GlcNAc
# In short: as §1
# [40] = target: GlcNAc(b1-2)[GlcNAc(b1-6)]Man(a1-6)[GlcNAc(b1-2)Man(a1-3)]Man(b1-4)GlcNAc(b1-4)[Fuc(a1-6)]GlcNAc
# In short: as §1
# [41] = target: GlcNAc(b1-2)[GlcNAc(b1-6)]Man(a1-6)[GlcNAc(b1-4)][GlcNAc(b1-2)Man(a1-3)]Man(b1-4)GlcNAc(b1-4)GlcNAc
# In short: as §1
# [42] = target: GlcNAc(b1-3)Fuc
# In short: as §1
# [43] = target: GlcNAc(b1-3)Gal
# In short: as §1
# [44] = target: GlcNAc(b1-3)Gal(b1-3)GalNAc
# In short: as §1
# [45] = target: GlcNAc(b1-3)Gal(b1-4)Glc
# In short: as §1
binder,measurement,setting,value
Pbx2CASH domain (Cryptococcus neoformans) (protein) GIPGPNRLYRLSGPIIFTAADQEIATYGYPTGSERAVLRVEGRNTATAIQGDCRRCARVSVKNLVVDGNRKKLGRMRDFQLATGLVVLGGNEGQSIQNSWIKNPRGFTAIHIREGDKLQCSGARVEKNEIGPVGEEYDPEKDGDDPEMSPLGRPLADGVSIACRDSFIRDNTFRDNTDAAIVVYCSPGTLIHA,glycan array binding signal (z-score),[1],-0.612
same,glycan array binding signal (z-score),[2],-0.433
same,glycan array binding signal (z-score),[3],-0.367
same,glycan array binding signal (z-score),[4],-0.644
same,glycan array binding signal (z-score),[5],-0.633
same,glycan array binding signal (z-score),[6],-0.15
same,glycan array binding signal (z-score),[7],0.393
same,glycan array binding signal (z-score),[8],-0.015
same,glycan array binding signal (z-score),[9],-0.249
same,glycan array binding signal (z-score),[10],-0.557
same,glycan array binding signal (z-score),[11],-0.59
same,glycan array binding signal (z-score),[12],0.077
same,glycan array binding signal (z-score),[13],0.288
same,glycan array binding signal (z-score),[14],0.477
same,glycan array binding signal (z-score),[15],0.121
same,glycan array binding signal (z-score),[16],2.02
same,glycan array binding signal (z-score),[17],-0.233
same,glycan array binding signal (z-score),[18],0.168
same,glycan array binding signal (z-score),[19],2.57
same,glycan array binding signal (z-score),[20],0.269
same,glycan array binding signal (z-score),[21],-0.705
same,glycan array binding signal (z-score),[22],-0.075
same,glycan array binding signal (z-score),[23],0.228
same,glycan array binding signal (z-score),[24],-0.496
same,glycan array binding signal (z-score),[25],0.631
same,glycan array binding signal (z-score),[26],0.425
same,glycan array binding signal (z-score),[27],-0.134
same,glycan array binding signal (z-score),[28],0.225
same,glycan array binding signal (z-score),[29],-0.842
same,glycan array binding signal (z-score),[30],-0.58
same,glycan array binding signal (z-score),[31],-0.408
same,glycan array binding signal (z-score),[32],0.191
same,glycan array binding signal (z-score),[33],-0.39
same,glycan array binding signal (z-score),[34],-0.119
same,glycan array binding signal (z-score),[35],-0.293
same,glycan array binding signal (z-score),[36],-0.35
same,glycan array binding signal (z-score),[37],-0.738
same,glycan array binding signal (z-score),[38],-0.348
same,glycan array binding signal (z-score),[39],-0.265
same,glycan array binding signal (z-score),[40],-0.071
same,glycan array binding signal (z-score),[41],0.074
same,glycan array binding signal (z-score),[42],-0.946
same,glycan array binding signal (z-score),[43],-0.697
same,glycan array binding signal (z-score),[44],-0.246
same,glycan array binding signal (z-score),[45],0.072

# Two entries from above, set out differently:
binder | measurement | setting | value
Pbx2CASH domain (Cryptococcus neoformans) (protein) GIPGPNRLYRLSGPIIFTAADQEIATYGYPTGSERAVLRVEGRNTATAIQGDCRRCARVSVKNLVVDGNRKKLGRMRDFQLATGLVVLGGNEGQSIQNSWIKNPRGFTAIHIREGDKLQCSGARVEKNEIGPVGEEYDPEKDGDDPEMSPLGRPLADGVSIACRDSFIRDNTFRDNTDAAIVVYCSPGTLIHA | glycan array binding signal (z-score) | [13] | 0.288
same | glycan array binding signal (z-score) | [14] | 0.477

# Reference: the supplement of paper PMC8728848
